Results taken from patent publication US20170363618A1, “AGE-MODIFIED CELLS AND METHODS FOR MAKING AGE-MODIFIED CELLS” (MEMORIAL SLOAN-KETTERING CANCER CENTER, priority 2015, published 2017).
“Also recorded” adds a separate entry of the source. For at least one compound, name, drawing or mass did not settle the structure.

Legend:
[1] = system: global DNA levels of 5-mC methylation; test: Global 5-mC DNA methylation quantification (colorimetric Methylflash kit) in treated fibroblasts; format: cell-based, human; settings: 3 days of treatment, young and old fibroblasts, three concentrations
Procedure: Genomic DNA was extracted from treated cell samples using the Quick-gDNA MicroPrep kit (Zymo). Global levels of DNA methylation were measured using the colorimetric Methylflash Methylated DNA quantification kit (Epigentek) according to manufacturer instructions, and read using the PerkinElmer ENSPIRE plate reader. gDNA sample size was 50 ng. Analysis was performed according to manufacturer instructions.
Cells were then treated with each of the six compounds for three days. Each compound had both a young and old untreated control, as well as the three pre-determined concentrations for both young and old cells. In addition, a six-well plate was set up for Decitabine, Zebularine, Chaetocin and SW155246, with an additional 3 cm plate for use as untreated controls for quantification of global levels of DNA methylation. After treatment, cells were stained with immunofluorescence for HP1α, H1, γH2Ax, Lamin B1, H3K9me3 and […].

[2] = system: young (348) and old (204) fibroblasts; test: Immunofluorescence detection of aging marker expression in fibroblasts after three-day compound treatment; format: cell-based, human; settings: 3-day treatment
Procedure: Cell samples were all supplied by Coriell Cell Repositories. The cell line from a young individual (<20 years) was GM03348 (“348”). The cell line from an old individual (>65 years) was GM04204 (“204”).
Cells were cultured in human fibroblast medium made from 95% Gibco's Minimum Essential Medium, 4.5% fetal bovine serum, and 0.5% Penicillin/Streptomycin. Cells were plated on 15 cm plates and passaged every 2-3 days as necessary, and fed every other day. For experimentation, cells were plated in 96 well plates or 6 well plates. […]
After fixing, cells were incubated in Permeablization Buffer containing 0.3% Triton X-100 and 1% BSA in PBS for 35 minutes at room temperature. […] The expression level of each marker was determined relative to the untreated control on the same treatment plate (FIGS. 11, 13, 15 and 16), or to the average of the untreated controls across all treatment plates for the same marker (FIGS. 12 and 14).
Imaging of immunofluorescence was done using the PerkinElmer Operetta High Content Imaging System. Each well had several (>15) random spots in each plate imaged, and staining intensity quantification was done using the Operetta Harmony software. […]
Cells were then treated with each of the six compounds for three days. Each compound had both a young and old untreated control, as well as the three pre-determined concentrations for both young and old cells. […]

## CN1C(=O)[C@@]23C[C@]4([C@]56C[C@@]78SS[C@@](CO)(C(=O)N7[C@H]5Nc5ccccc56)N(C)C8=O)c5ccccc5N[C@@H]4N2C(=O)[C@]1(CO)SS3 [Chaetocin, (3S,3'S,5aR,5aR,10bR,10′bR,11aS,11′aS)-2,2′,3,3′,5a,5′a,6,6′-octahydro-3,3′-bis(hydroxymethyl)-2,2′-dimethyl-[10b,10′b(11H,11′H)-bi3,11a-epidithio-11aH-pyrazino[1′,2′:1,5]pyrrolo[2,3-b]indole]-1,1′,4,4′-tetrone]
[1]
  global levels of 5-mC DNA methylation: increased steadily based on concentration; also recorded: increase
[2]
  expression of the six markers tested: modulated
